Only a part is listed here, and it is no random draw. At the low end of the ranking the order means little.
Assays:
Test in all cases: DAPPL (digital affinity profiling via proximity ligation, sequencing)
Conditions in all cases: 10 mM Tris-HCl pH 7.5, 50 mM NaCl, 1 mM DTT, 4% glycerol, room temperature, 30 min; GST-TFs on glutathione beads, 16-mer random dsDNA library, 0.1% …; high values mean tight binding; double strand, one strand shown; scale: fold enrichment (6-mer frequency, TF over GST control)
FLI1 = biological target: T1, FLI1 (UniProt Q01543)
T1 sequence: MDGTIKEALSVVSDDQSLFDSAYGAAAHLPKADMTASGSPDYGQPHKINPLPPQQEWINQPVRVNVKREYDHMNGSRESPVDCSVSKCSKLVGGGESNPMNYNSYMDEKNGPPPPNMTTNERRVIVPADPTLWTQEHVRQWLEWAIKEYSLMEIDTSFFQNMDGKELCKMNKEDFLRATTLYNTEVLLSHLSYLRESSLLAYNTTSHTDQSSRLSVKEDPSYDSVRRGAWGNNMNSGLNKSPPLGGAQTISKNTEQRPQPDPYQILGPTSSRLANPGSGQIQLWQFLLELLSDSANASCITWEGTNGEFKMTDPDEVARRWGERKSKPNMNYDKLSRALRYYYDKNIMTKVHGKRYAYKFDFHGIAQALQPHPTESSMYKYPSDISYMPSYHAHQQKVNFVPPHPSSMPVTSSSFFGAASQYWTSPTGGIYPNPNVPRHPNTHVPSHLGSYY

By UniProt entry, the sequences of proteins in these tests, tags left out. Where a name states a change or a piece, a line headed by the entry shows the natural chain unless it says otherwise.
UniProt Q01892: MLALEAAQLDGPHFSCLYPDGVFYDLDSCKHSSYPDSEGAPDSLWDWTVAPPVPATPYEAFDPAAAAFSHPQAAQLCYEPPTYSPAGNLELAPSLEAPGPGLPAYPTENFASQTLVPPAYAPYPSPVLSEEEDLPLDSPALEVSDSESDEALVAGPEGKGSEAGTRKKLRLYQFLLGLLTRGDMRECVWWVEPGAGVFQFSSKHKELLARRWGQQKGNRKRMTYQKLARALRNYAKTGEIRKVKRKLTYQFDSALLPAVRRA
UniProt P41161: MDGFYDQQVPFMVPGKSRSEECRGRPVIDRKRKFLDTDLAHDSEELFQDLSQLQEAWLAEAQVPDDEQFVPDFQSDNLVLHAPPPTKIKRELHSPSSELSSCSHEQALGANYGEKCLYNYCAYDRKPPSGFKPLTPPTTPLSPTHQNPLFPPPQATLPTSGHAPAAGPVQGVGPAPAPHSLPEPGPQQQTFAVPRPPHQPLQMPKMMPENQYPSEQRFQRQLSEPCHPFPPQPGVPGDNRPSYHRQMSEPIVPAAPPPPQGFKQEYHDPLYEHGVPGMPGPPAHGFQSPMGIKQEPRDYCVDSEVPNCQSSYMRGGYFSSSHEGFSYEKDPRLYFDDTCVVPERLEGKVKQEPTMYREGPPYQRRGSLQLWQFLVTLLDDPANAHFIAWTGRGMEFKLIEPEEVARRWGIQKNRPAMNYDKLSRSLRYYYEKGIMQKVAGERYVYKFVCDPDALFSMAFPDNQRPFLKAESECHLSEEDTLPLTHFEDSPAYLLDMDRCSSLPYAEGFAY
UniProt Q99607: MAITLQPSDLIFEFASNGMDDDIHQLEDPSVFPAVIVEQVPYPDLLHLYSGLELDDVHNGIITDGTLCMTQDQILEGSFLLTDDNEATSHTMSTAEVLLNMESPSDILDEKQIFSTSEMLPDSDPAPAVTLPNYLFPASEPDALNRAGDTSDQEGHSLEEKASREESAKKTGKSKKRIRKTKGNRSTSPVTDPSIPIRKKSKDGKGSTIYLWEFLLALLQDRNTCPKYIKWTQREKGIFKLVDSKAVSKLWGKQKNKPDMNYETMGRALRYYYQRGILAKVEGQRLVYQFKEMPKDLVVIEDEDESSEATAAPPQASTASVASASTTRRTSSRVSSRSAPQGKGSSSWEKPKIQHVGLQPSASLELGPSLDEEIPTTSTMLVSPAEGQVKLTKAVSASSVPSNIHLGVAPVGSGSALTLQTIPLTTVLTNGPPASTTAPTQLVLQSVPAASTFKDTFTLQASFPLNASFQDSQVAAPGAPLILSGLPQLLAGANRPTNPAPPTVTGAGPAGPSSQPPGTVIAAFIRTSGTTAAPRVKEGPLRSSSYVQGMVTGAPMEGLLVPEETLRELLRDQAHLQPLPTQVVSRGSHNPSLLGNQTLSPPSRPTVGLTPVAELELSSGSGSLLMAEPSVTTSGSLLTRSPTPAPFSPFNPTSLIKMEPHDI

EHF = biological target: T2, EHF (UniProt Q9NZC4)
T2 sequence: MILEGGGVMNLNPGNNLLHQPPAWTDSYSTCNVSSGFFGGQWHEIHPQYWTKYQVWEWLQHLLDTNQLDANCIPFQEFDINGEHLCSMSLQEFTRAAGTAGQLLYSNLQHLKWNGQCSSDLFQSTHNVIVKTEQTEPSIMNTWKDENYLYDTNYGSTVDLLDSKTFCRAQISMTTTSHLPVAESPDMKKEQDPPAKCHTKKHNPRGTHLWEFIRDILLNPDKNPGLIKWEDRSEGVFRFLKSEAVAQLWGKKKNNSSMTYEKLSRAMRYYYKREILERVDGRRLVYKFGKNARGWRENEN

SPIB = SPIB (UniProt Q01892)
ETV5 = ETV5 (UniProt P41161)
ELF4 = ELF4 (UniProt Q99607)
ETV2 = biological target: T3, ETV2 (UniProt O00321)
T3 sequence: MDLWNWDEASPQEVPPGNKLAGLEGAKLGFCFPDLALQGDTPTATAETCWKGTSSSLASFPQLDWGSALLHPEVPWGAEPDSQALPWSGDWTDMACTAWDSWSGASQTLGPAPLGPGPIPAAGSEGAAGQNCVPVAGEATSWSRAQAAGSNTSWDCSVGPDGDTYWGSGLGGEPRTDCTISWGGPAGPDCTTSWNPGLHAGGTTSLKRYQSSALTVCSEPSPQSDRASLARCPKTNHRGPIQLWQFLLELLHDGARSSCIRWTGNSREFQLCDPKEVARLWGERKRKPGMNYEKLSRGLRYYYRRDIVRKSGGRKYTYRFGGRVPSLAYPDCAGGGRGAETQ

ETV3L = biological target: T4, ETV3L (UniProt Q6ZN32)
T4 sequence: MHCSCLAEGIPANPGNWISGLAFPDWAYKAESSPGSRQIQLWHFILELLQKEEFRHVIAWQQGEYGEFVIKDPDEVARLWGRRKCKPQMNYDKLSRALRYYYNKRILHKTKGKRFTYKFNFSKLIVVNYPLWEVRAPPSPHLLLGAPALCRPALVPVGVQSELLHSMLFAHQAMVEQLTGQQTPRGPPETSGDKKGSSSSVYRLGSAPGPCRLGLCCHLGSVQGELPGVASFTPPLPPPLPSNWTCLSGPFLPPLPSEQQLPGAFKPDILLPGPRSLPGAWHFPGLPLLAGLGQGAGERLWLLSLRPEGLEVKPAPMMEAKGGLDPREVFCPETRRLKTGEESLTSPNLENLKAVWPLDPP

Sequence | binding signal (FLI1) | binding signal (EHF) | binding signal (SPIB) | binding signal (ETV5) | binding signal (ELF4) | binding signal (ETV2) | binding signal (ETV3L)
GCGGTC | 0.631 | 0.719 | 0.672 | 0.633 | 0.676 | 0.715 | 0.679
GGAAGG | 0.777 | 0.842 | 0.853 | 0.874 | 0.731 | 0.771 | 0.797
GAGTGC | 0.704 | 0.698 | 0.61 | 0.691 | 0.731 | 0.739 | 0.797
TAAGTG | 0.771 | 0.847 | 0.785 | 0.818 | 0.814 | 0.833 | 0.79
TCGGTG | 0.514 | 0.535 | 0.529 | 0.6 | 0.521 | 0.625 | 0.568
GGCATC | 0.861 | 0.862 | 0.906 | 0.888 | 0.846 | 0.907 | 0.932
GGGAAT | 0.829 | 0.798 | 0.842 | 0.752 | 0.802 | 0.719 | 0.76
ACCAGG | 0.791 | 0.885 | 0.811 | 0.783 | 0.754 | 0.808 | 0.762
AATCGG | 0.566 | 0.559 | 0.531 | 0.602 | 0.543 | 0.553 | 0.545
GTTAGG | 0.7 | 0.817 | 0.858 | 0.841 | 0.793 | 0.801 | 0.794
GTCATG | 0.794 | 0.791 | 0.778 | 0.92 | 0.885 | 0.809 | 0.867
GGTGGC | 0.847 | 0.755 | 0.822 | 0.724 | 0.684 | 0.688 | 0.754
GAACGT | 0.38 | 0.43 | 0.392 | 0.422 | 0.42 | 0.38 | 0.402
GTCAGA | 0.63 | 0.588 | 0.598 | 0.584 | 0.669 | 0.555 | 0.637
GCATCA | 0.688 | 0.756 | 0.743 | 0.721 | 0.719 | 0.745 | 0.755
GGGTCC | 0.78 | 0.782 | 0.825 | 0.873 | 0.829 | 0.788 | 0.883
GAACGA | 0.787 | 0.741 | 0.773 | 0.794 | 0.726 | 0.732 | 0.766
GTGAAT | 0.817 | 0.836 | 0.881 | 0.82 | 0.789 | 0.776 | 0.786
GTCATA | 0.735 | 0.742 | 0.76 | 0.749 | 0.723 | 0.742 | 0.764
AACGTG | 0.353 | 0.42 | 0.351 | 0.367 | 0.373 | 0.414 | 0.38

Sequence | binding signal (FLI1) | binding signal (EHF) | binding signal (SPIB) | binding signal (ETV5) | binding signal (ELF4) | binding signal (ETV2) | binding signal (ETV3L)
AGTCGG | 0.148 | 0.146 | 0.148 | 0.129 | 0.122 | 0.139 | 0.142
GTGGAC | 0.837 | 0.932 | 0.859 | 0.888 | 0.9 | 0.824 | 0.914
GAAGAC | 0.918 | 0.872 | 0.929 | 0.896 | 0.887 | 0.837 | 0.872
CCCAGG | 0.705 | 0.677 | 0.75 | 0.76 | 0.761 | 0.724 | 0.73
GAGTAT | 0.595 | 0.633 | 0.588 | 0.637 | 0.64 | 0.596 | 0.604
TAGACG | 0.765 | 0.738 | 0.779 | 0.745 | 0.745 | 0.717 | 0.714
ATGGAG | 0.559 | 0.598 | 0.517 | 0.582 | 0.581 | 0.498 | 0.592
CGGGGA | 0.424 | 0.459 | 0.441 | 0.413 | 0.42 | 0.463 | 0.39
CGTGCG | 0.69 | 0.623 | 0.689 | 0.682 | 0.621 | 0.714 | 0.616
CAGTAC | 0.891 | 0.876 | 0.85 | 0.858 | 0.885 | 0.796 | 0.829
CACAGT | 0.814 | 0.703 | 0.731 | 0.75 | 0.751 | 0.754 | 0.769
GATTGG | 0.939 | 0.853 | 0.983 | 0.792 | 0.91 | 0.863 | 0.91
GCCAAG | 0.84 | 0.861 | 0.779 | 0.841 | 0.883 | 0.814 | 0.859
GAGACA | 0.356 | 0.385 | 0.376 | 0.394 | 0.387 | 0.431 | 0.364
CCTGAG | 0.861 | 0.764 | 0.79 | 0.807 | 0.844 | 0.858 | 0.836
AGACGA | 0.693 | 0.732 | 0.727 | 0.72 | 0.708 | 0.763 | 0.698
AAGGCG | 0.663 | 0.65 | 0.647 | 0.73 | 0.668 | 0.732 | 0.677
GGGGAG | 0.413 | 0.361 | 0.392 | 0.414 | 0.362 | 0.455 | 0.424
CGGTCC | 0.926 | 0.96 | 0.968 | 0.991 | 0.979 | 0.896 | 0.959
GCACGG | 0.847 | 0.823 | 0.862 | 0.898 | 0.837 | 0.786 | 0.818

In a second layout: entries from further up.
Sequence	binding signal (FLI1)	binding signal (EHF)	binding signal (SPIB)	binding signal (ETV5)	binding signal (ELF4)	binding signal (ETV2)	binding signal (ETV3L)
AGTCGG	0.148	0.146	0.148	0.129	0.122	0.139	0.142
GTGGAC	0.837	0.932	0.859	0.888	0.9	0.824	0.914

Additional records.

Sequence | binding signal (FLI1) | binding signal (EHF) | binding signal (SPIB) | binding signal (ETV5) | binding signal (ELF4) | binding signal (ETV2) | binding signal (ETV3L)
GTTAGT | 0.856 | 0.769 | 0.78 | 0.768 | 0.77 | 0.848 | 0.765
GGCGTA | 0.649 | 0.666 | 0.664 | 0.596 | 0.595 | 0.653 | 0.661
GAGCTG | 0.802 | 0.742 | 0.781 | 0.744 | 0.767 | 0.689 | 0.617
CCAGCC | 0.723 | 0.771 | 0.771 | 0.794 | 0.784 | 0.887 | 0.829
GAGTGG | 0.637 | 0.668 | 0.585 | 0.633 | 0.628 | 0.678 | 0.631
GGTGAT | 0.796 | 0.788 | 0.894 | 0.77 | 0.889 | 0.874 | 0.806
ACCAGT | 0.443 | 0.467 | 0.453 | 0.46 | 0.493 | 0.399 | 0.485
CCGTGA | 0.191 | 0.187 | 0.177 | 0.191 | 0.164 | 0.187 | 0.192
AGCGCG | 0.745 | 0.874 | 0.885 | 0.799 | 0.843 | 0.797 | 0.771
GTTGTG | 0.945 | 0.882 | 0.844 | 0.813 | 0.875 | 0.913 | 1.02
GGACAG | 0.585 | 0.588 | 0.559 | 0.602 | 0.556 | 0.523 | 0.565
GGTGAC | 0.857 | 0.823 | 0.703 | 0.849 | 0.784 | 0.675 | 0.759
AGATTG | 0.858 | 0.784 | 0.939 | 0.831 | 0.845 | 0.9 | 0.834
AGCAAG | 0.859 | 0.811 | 0.918 | 0.892 | 0.895 | 1.02 | 0.947
CGCGGA | 0.937 | 0.928 | 0.972 | 0.956 | 0.952 | 0.931 | 0.945
GGAGTG | 0.384 | 0.433 | 0.471 | 0.429 | 0.369 | 0.383 | 0.451
GGTGTG | 0.752 | 0.777 | 0.729 | 0.754 | 0.719 | 0.807 | 0.703
ACGGGC | 0.801 | 0.767 | 0.811 | 0.84 | 0.859 | 0.839 | 0.867
CCCAGC | 0.892 | 0.91 | 0.907 | 0.802 | 0.907 | 0.999 | 0.923
ACGAGA | 0.707 | 0.659 | 0.685 | 0.651 | 0.686 | 0.719 | 0.701

A few values from above.
binding signal (ETV2) with AGCAAG is entered as 1.02
binding signal (ETV3L) with GGGGAG is entered as 0.424
binding signal (ETV3L) with AGACGA is entered as 0.698

Source: article PMC7862700
